Test results from patent US20250339817A1, “A PROCESS FOR THE NITRIC OXIDE ABATEMENT THROUGH BIOLOGICAL TREATMENTS” (FUNDACIÓ EURECAT, priority 2022, published 2025).

Key:
[1] = Nitric oxide (NO) absorption with pure NAPs (batch tests); type: physicochemical; conditions: pure NAP, increasing molarity
Method: Batch tests with pure NAPs were performed in 120 mL glass amber vials with an initial concentration of NO between 4500 and 5100 ppmv and different amounts of NAPs (DES, SO, HTX, HNO and HEX). For this experiment each NAP was added to a vial containing NO. Each NAP was tested alone. The results were compared with respect to a blank containing deionized water instead of NAP. All experiments were carried out at a temperature of 25° C. and agitation of 100 rpm in an incubator, five replicates were made per point. Gas phase analysis (NO and NO2) was performed at the beginning of the experiment and at the end (1 hour).
NO and NO2 concentrations in the gas phase were measured by Fourier Transform Infrared Spectroscopy (FTIR) from an aliquot of 1 mL (PerkinElmer Inc., Spain). The NO removal efficiency in the tests was calculated from the difference in NO concentration from the beginning and end of each test. Nitrogen compounds and chemical oxygen demand (COD) were analyzed in liquid samples after centrifuged at 15,000 rpm and filtration (0.22 μm) to separate the NAP found in the sample. Nitrite and nitrate were measured using Hach Lange kits (LCK342 and LCK 339, respectively, Hach Lange, Germany). COD was measured using Hach Lange kits (LCK114 and LCK 214, respectively, Hach Lange, Germany).

[2] = tested on: biomass from the SBR; test: Long-term biodegradability test (ultimate BOD, OECD 301 F)
[3] = Mass transfer gas-to-liquid batch tests in a three-phase system (CO2/NO/Aqueous/NAP), NO; type: physicochemical; conditions: phosphate buffer pH 8, 10% v/v NAP
Method: Mass transfer gas-to-liquid batch tests with a mixture of gases with CO2 and NO were performed to determine the mass transfer rate and selectivity of these gases in the presence of NAP and aqueous phase. The results were compared with respect to blank (water or phosphate buffer at pH 8 without NAP). The initial samples were filled with CO2 to reach a peak transmittance area between 8010 and 8940 cm^−1 and NO to reach a peak of transmittance area between 11 and 14 cm^−1, then 10 mL of each NAP (HTX, HNO and HEX) was injected. Tests were performed with a phosphate buffer at pH 8 at a 10% v/v ratio of NAP/aqueous phase. All experiments were performed in 500 mL amber glass bottles previously prepared in a glove box to maintain an inert atmosphere and carried out per at least triplicate at a temperature of 25° C. and 100 rpm orbital shaking in an incubator. CO2 and NO in the gas phase were measured at the beginning and at the end of the test. Also, the liquid phase was monitored for pH, nitrite (NO2^−) and nitrate (NO3^−) at the end of each test.
NO and CO2 peak area in the gas phase were measured by Fourier Transform Infrared Spectroscopy (FTIR). In these experiments the peak area was analyzed and not the concentration. Therefore, the performance of the tests will be given in percent (%) area reduction, which is defined in Eq 1. Nitrogen compounds were analyzed in liquid samples after being centrifuged at 15,000 rpm and filtration (0.22 μm) to separate the NAP found in the sample. NO2^− and NO3^− were measured using Hach Lange kits (LCK342 and LCK 339, respectively, Hach Lange, Germany).
The initial area (Areainitial) is a quantitative measure of the transmittance at certain given wavelengths (NO=1730-1930 cm^−1; CO2=2230-2400 cm^−1) and correlates the presence of the compound in the sample at time=0 h. The final area (Areafinal) is a quantitative measure of the transmittance at the given wavelengths (NO=between 1730-1930 cm^−1; CO2=2230-2400 cm-1) and correlates with the presence of the compound in the sample at time=1 h.

[4] = Chemical absorption and biological reduction (CABR) batch tests; conditions: liquid phase, 1 hour and 24 hours

**Q.** With `C[SiH](O[Si](C)(C)C)O[Si](C)(C)C` [HTX, 1,1,1,3,5,5,5-heptamethyl-trisiloxane] as the molecule, how does the “moles of absorber added to reach a similar NO removal” value (“moles … to reach a similar NO removal” for short) [1] read?
**A.** 0.076 mol

**Q.** And the “Degradation in the 28 days of the test” value [2]?
**A.** 7%

**Q.** What about the “concentration of nitrogenous compounds (NO2− and NO3−) in the liquid phase” value (from here on “concentration of nitrogenous compounds”) [3] of the same molecule?
**A.** 14±2 N-mg/L

**Q.** Which “moles … to reach a similar NO removal” value [1] does the source give for `CCCCCCCCCCCCCCCC` [HEX, n-hexadecane] here?
**A.** 0.068 mol

**Q.** And the “Accumulation of nitrite and nitrate in the system” value [4]?
**A.** non-accumulation

**Q.** And the “concentration of nitrogenous compounds” value [3]?
**A.** 10±1 N-mg/L

**Q.** Which “moles … to reach a similar NO removal” value [1] does the source give for `CC(CC(C)(C)C)CC(C)(C)CC(C)(C)C` (stereo not drawn) [HNO, 2,2,4,4,6,8,8-heptamethylnonane] here?
**A.** 0.070 mol

**Q.** What about the “Accumulation of nitrite and nitrate in the system” value [4] of the same molecule?
**A.** non-accumulation

**Q.** And the “concentration of nitrogenous compounds” value [3]?
**A.** 18±2 N-mg/L
